Source: the supplement of paper PMC11732987, “Enantioselective OTUD7B fragment discovery through chemoproteomics screening and high-throughput optimisation” (Communications Chemistry, 2025)
The other results are listed elsewhere or left out. The data scatter; read single values as rough.

Protein sequences, listed by entry. Tags and fused reporters are not part of them. Lines headed by an entry give the natural chain unless they say otherwise; changes in a name come on top. Residues count along the entry.
UniProt Q9NR30: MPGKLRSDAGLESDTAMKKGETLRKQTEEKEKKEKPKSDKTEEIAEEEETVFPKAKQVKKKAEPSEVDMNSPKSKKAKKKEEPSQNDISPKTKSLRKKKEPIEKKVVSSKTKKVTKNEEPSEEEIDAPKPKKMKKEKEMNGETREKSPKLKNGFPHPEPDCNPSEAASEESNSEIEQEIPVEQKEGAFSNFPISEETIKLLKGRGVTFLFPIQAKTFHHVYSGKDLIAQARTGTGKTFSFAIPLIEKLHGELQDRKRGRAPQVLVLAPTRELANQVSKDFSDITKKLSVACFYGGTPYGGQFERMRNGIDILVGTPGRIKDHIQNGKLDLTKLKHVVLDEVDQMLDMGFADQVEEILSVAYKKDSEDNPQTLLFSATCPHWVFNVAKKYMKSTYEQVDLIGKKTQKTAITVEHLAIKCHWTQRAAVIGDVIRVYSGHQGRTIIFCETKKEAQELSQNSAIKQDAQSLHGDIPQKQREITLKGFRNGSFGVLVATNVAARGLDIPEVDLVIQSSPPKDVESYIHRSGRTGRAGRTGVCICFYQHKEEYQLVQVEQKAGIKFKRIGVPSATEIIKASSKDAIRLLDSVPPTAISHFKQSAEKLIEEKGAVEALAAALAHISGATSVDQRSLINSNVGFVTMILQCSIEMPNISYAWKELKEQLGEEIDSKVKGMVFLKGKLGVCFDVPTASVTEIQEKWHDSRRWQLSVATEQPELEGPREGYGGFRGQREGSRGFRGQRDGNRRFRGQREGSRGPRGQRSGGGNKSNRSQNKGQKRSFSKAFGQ
UniProt P49711, 145-168: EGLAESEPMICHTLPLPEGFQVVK
UniProt P39656: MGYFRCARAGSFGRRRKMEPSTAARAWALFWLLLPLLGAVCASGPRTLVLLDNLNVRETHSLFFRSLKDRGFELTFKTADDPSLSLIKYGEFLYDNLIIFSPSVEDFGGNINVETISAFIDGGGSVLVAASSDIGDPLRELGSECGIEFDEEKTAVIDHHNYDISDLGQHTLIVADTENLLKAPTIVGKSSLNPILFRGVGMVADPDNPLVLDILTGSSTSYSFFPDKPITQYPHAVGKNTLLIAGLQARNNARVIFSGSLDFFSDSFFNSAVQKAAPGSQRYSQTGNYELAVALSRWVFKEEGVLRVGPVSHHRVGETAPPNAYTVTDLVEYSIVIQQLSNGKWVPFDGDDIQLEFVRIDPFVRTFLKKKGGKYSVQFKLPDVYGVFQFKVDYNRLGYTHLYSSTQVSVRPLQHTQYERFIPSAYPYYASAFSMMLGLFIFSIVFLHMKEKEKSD
UniProt Q13617, whole entry, looked up: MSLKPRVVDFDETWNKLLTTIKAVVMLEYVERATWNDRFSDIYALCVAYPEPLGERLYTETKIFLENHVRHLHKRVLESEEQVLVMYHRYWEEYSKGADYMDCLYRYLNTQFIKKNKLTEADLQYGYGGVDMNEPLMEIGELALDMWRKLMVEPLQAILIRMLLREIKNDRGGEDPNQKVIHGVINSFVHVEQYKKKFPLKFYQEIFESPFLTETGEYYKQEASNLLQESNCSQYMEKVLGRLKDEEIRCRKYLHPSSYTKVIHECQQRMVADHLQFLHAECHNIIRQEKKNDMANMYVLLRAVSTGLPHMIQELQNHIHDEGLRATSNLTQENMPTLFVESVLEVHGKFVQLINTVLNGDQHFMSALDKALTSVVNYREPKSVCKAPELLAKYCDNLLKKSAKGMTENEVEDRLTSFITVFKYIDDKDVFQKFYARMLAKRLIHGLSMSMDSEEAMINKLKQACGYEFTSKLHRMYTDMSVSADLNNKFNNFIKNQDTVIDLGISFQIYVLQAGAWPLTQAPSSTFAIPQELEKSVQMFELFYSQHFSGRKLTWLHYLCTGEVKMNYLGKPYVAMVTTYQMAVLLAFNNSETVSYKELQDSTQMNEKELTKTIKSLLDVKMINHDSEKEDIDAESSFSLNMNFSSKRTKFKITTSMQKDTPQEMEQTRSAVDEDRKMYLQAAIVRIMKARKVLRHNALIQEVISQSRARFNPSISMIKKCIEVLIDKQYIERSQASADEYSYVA
UniProt Q13206: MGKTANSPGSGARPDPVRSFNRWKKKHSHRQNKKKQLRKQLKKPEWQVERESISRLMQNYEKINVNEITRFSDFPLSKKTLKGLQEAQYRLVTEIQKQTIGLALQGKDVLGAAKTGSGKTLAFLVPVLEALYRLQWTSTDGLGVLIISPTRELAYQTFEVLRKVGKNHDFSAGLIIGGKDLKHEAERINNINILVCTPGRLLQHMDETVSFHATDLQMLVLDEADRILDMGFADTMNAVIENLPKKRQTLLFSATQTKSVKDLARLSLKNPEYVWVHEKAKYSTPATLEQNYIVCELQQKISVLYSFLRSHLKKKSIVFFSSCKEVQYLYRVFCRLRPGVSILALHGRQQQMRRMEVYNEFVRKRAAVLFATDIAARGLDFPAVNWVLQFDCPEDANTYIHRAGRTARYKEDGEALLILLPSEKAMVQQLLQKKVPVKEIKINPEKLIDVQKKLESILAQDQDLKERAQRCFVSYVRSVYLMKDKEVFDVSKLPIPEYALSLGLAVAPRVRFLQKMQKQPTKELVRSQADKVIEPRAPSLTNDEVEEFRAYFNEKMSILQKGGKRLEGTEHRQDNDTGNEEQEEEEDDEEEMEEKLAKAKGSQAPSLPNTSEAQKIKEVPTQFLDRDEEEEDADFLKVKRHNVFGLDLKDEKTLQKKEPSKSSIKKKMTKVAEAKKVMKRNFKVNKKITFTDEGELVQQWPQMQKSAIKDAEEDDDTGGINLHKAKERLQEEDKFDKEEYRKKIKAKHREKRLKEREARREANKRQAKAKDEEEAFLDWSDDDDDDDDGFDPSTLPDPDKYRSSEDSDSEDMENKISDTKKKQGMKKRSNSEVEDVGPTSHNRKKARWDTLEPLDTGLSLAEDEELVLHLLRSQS
UniProt P53634: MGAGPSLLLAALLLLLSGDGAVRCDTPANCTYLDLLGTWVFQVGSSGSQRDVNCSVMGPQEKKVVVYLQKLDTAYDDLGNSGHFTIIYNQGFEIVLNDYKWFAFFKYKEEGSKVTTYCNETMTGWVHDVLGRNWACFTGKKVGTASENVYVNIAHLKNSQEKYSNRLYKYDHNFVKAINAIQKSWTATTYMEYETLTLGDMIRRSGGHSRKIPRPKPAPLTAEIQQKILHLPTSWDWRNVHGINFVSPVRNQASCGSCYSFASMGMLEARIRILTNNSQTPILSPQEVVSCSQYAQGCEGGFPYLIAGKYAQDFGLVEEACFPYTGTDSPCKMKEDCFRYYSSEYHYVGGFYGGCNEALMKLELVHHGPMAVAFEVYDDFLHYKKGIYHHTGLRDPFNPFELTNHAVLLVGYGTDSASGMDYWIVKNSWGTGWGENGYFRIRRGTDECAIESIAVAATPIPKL
UniProt Q9UER7, whole entry, looked up: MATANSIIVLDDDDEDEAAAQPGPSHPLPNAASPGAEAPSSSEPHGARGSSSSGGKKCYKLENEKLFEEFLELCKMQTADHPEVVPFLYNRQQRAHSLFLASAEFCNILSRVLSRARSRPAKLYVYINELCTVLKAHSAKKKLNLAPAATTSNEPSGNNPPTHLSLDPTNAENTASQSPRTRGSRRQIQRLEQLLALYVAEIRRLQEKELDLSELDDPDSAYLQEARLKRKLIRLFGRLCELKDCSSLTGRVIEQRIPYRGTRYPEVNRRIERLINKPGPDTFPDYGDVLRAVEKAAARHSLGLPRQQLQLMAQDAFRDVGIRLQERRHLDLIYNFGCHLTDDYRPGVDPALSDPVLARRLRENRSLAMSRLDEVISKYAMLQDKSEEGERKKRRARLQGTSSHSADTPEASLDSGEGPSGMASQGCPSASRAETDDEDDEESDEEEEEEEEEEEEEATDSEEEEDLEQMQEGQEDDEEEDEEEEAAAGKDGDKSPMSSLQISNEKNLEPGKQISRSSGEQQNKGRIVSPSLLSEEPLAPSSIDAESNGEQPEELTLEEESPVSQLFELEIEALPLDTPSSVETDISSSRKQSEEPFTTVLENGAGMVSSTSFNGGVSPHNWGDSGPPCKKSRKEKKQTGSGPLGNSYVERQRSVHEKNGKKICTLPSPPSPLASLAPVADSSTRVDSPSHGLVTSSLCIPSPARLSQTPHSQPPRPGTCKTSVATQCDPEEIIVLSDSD
UniProt P17844: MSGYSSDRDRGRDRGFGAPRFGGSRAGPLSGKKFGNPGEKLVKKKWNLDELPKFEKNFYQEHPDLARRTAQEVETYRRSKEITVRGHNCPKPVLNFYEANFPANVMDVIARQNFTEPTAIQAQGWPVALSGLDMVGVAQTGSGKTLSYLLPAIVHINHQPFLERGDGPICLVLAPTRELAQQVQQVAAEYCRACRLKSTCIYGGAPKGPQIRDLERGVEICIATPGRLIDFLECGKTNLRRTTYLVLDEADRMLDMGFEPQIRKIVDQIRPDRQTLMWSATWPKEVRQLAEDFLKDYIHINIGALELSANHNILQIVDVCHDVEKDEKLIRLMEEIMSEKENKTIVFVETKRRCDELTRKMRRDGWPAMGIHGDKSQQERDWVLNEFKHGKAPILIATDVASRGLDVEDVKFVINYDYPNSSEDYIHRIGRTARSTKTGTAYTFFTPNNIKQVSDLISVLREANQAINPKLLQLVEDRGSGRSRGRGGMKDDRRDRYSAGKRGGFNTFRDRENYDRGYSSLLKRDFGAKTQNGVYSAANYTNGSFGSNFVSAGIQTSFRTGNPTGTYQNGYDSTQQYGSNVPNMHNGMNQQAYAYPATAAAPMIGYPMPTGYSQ
UniProt P17812: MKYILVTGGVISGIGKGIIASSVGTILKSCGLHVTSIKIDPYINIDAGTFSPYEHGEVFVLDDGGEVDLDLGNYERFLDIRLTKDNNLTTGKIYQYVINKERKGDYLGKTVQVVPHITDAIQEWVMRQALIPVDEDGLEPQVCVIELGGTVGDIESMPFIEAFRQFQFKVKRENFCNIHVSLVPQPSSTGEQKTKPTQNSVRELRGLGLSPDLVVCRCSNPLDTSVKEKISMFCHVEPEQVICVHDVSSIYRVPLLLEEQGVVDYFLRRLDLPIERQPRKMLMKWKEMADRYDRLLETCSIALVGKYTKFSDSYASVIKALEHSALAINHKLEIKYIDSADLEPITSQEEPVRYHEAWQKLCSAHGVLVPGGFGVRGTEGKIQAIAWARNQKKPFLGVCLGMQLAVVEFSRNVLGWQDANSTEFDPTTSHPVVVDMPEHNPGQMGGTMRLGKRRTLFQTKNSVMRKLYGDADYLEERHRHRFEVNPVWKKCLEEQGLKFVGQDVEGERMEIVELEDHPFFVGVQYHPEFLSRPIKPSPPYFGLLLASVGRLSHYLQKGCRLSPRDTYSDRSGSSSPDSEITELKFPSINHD
UniProt Q9NV06: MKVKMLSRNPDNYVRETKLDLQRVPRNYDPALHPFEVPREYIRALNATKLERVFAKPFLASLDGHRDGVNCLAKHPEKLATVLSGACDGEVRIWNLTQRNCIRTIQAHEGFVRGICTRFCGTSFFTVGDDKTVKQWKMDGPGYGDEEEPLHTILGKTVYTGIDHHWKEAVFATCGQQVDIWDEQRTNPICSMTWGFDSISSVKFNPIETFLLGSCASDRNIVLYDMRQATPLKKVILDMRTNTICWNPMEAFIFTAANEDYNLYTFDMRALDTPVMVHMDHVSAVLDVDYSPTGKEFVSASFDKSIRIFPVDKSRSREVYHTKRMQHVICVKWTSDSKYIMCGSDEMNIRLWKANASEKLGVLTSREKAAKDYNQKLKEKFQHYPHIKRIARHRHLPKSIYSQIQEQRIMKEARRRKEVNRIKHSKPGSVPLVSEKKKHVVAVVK
UniProt Q9Y5B0, 405-434: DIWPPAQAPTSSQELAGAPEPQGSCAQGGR
UniProt Q2VPK5: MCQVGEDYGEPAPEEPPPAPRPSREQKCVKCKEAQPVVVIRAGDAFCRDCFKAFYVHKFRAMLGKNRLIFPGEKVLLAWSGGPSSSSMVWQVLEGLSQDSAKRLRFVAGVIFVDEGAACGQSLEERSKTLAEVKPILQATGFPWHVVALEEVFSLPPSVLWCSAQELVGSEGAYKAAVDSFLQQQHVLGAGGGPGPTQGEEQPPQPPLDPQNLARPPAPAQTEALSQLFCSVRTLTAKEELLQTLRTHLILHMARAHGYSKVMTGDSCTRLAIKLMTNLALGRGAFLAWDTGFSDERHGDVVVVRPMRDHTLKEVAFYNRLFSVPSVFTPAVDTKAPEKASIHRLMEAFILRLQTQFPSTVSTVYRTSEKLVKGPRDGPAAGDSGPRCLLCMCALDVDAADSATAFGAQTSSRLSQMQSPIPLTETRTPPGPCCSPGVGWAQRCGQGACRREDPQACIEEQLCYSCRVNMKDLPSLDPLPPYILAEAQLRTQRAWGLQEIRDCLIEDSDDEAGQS
UniProt Q8TB03: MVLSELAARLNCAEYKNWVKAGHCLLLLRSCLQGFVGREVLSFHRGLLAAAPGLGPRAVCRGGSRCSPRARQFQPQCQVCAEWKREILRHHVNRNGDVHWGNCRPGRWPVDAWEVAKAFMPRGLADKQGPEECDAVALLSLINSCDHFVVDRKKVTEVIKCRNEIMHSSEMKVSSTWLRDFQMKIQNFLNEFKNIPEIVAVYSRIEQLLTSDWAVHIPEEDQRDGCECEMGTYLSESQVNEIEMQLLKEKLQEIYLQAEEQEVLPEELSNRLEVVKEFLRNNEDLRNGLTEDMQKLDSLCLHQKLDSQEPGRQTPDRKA

Columns and labels:
[1] = compound: ClCC(=O)N[C@@H]1CCCc2ccccc12; assay: log2 mean competition ratio of IA-DTB cysteine labelling (DMSO/compound) (log2 ratio); higher = stronger cysteine engagement by compound; settings: treatment time: 4 h, cell line lysate: HEK293T
Method: (§1)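 IA-DTB competitive cysteine chemoproteomics in HEK293T RIPA lysate. Lysates were treated with compound 29 or 30 at 50 or 200 µM for 4 h, then IA-DTB (500 µM, 1 h), trypsin-digested, NeutrAvidin-enriched and analysed by diaPASEF. Competition ratio = intensity DMSO / intensity compound (n=4 treated, n=64 DMSO); binding: mean log2 CR ≥ 1 and p ≤ 0.05 plus QC filters. Target is the cysteine site.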

[2] = compound: ClCC(=O)N[C@H]1CCCc2ccccc12; assay: as above; settings: treatment time: 4 h, cell line lysate: HEK293T
Method: as §1

| Target | log2 mean competition ratio ([1]; 50 µM) | log2 mean competition ratio ([1]; 200 µM) | log2 mean competition ratio ([2]; 50 µM) | log2 mean competition ratio ([2]; 200 µM) |
| --- | --- | --- | --- | --- |
| DDX21 C682 (UniProt Q9NR30) | -0.244 | 0.206 | -0.217 | 0.101 |
| DCAF1 C106 (UniProt Q9Y4B6) | 0.596 | -0.109 | 0.13 | 0.276 |
| CTCF C155 (UniProt P49711) | 0.218 | 0.145 | 0.118 | -0.22 |
| DDOST C145 (UniProt P39656) | -0.156 | -0.317 | 0.0636 | -0.195 |
| CUL2 C721 (UniProt Q13617) | -0.19 | -0.351 | 0.39 | -0.141 |
| CUL2 C232 (UniProt Q13617) | -0.546 | 0.0463 | -0.259 | -0.153 |
| DDX10 C196 (UniProt Q13206) | -0.0731 | -0.0877 | -0.0956 | -0.143 |
| CTSC C136 (UniProt P53634) | 0.151 | -0.12 | 0.391 | -0.0736 |
| DCAF1 C967 (UniProt Q9Y4B6) | -0.0246 | 0.148 | -0.0409 | 0.341 |
| DAXX C245 (UniProt Q9UER7) | -0.0451 | -0.0273 | 0.215 | 0.093 |
| DDX5 C354 (UniProt P17844) | 0.0349 | 0.0423 | 0.271 | -0.0165 |
| CTPS1 C218 (UniProt P17812) | -0.0418 | 0.0595 | -0.434 | 0.00807 |
| CYP39A1 C461 | -0.0832 | 0.514 | 0.156 | 0.334 |
| DCAF13 C120 (UniProt Q9NV06) | 0.374 | -0.581 | 0.372 | -0.191 |
| CTDP1 C429 (UniProt Q9Y5B0) | -0.196 | -0.487 | 0.384 | 0.0658 |
| CYFIP1 C993 | 0.479 | 0.138 | 0.377 | -0.17 |
| CTU2 C47 (UniProt Q2VPK5) | -0.13 | 0.131 | -0.218 | 0.142 |
| DDX50 C417 (UniProt Q9BQ39) | -0.0533 | 0.149 | 0.013 | -0.04 |
| CTSC C448 (UniProt P53634) | -0.39 | -0.0856 | -0.275 | -0.216 |
| CRYBG3 C898 (UniProt Q68DQ2) | 0.139 | 0.0761 | -0.0363 | 0.29 |
| CXorf38 C161 (UniProt Q8TB03) | 0.376 | 0.0835 | 0.425 | 0.000594 |

For reference, part of the list above.

| Target | log2 mean competition ratio ([1]; 50 µM) | log2 mean competition ratio ([1]; 200 µM) | log2 mean competition ratio ([2]; 50 µM) | log2 mean competition ratio ([2]; 200 µM) |
| --- | --- | --- | --- | --- |
| CTCF C155 (UniProt P49711) | 0.218 | 0.145 | 0.118 | -0.22 |
| DDOST C145 (UniProt P39656) | -0.156 | -0.317 | 0.0636 | -0.195 |
